According to US20150218213A1, “INHIBITORS OF ALPHA6 INTEGRIN/E-CADHERIN COMPLEX” (Università degli Studi di Torino, priority 2012, published 2015):
Results are given in words; binding and its absence hold for the method and conditions named. Some results given as binding are weak or reduced against the parent protein; the word gives no strength.

The chains behind the UniProt entries cited, without tags or fusion partners. Where a name states a change or a piece, a line headed by the entry shows the natural chain unless it says otherwise.
UniProt P16144: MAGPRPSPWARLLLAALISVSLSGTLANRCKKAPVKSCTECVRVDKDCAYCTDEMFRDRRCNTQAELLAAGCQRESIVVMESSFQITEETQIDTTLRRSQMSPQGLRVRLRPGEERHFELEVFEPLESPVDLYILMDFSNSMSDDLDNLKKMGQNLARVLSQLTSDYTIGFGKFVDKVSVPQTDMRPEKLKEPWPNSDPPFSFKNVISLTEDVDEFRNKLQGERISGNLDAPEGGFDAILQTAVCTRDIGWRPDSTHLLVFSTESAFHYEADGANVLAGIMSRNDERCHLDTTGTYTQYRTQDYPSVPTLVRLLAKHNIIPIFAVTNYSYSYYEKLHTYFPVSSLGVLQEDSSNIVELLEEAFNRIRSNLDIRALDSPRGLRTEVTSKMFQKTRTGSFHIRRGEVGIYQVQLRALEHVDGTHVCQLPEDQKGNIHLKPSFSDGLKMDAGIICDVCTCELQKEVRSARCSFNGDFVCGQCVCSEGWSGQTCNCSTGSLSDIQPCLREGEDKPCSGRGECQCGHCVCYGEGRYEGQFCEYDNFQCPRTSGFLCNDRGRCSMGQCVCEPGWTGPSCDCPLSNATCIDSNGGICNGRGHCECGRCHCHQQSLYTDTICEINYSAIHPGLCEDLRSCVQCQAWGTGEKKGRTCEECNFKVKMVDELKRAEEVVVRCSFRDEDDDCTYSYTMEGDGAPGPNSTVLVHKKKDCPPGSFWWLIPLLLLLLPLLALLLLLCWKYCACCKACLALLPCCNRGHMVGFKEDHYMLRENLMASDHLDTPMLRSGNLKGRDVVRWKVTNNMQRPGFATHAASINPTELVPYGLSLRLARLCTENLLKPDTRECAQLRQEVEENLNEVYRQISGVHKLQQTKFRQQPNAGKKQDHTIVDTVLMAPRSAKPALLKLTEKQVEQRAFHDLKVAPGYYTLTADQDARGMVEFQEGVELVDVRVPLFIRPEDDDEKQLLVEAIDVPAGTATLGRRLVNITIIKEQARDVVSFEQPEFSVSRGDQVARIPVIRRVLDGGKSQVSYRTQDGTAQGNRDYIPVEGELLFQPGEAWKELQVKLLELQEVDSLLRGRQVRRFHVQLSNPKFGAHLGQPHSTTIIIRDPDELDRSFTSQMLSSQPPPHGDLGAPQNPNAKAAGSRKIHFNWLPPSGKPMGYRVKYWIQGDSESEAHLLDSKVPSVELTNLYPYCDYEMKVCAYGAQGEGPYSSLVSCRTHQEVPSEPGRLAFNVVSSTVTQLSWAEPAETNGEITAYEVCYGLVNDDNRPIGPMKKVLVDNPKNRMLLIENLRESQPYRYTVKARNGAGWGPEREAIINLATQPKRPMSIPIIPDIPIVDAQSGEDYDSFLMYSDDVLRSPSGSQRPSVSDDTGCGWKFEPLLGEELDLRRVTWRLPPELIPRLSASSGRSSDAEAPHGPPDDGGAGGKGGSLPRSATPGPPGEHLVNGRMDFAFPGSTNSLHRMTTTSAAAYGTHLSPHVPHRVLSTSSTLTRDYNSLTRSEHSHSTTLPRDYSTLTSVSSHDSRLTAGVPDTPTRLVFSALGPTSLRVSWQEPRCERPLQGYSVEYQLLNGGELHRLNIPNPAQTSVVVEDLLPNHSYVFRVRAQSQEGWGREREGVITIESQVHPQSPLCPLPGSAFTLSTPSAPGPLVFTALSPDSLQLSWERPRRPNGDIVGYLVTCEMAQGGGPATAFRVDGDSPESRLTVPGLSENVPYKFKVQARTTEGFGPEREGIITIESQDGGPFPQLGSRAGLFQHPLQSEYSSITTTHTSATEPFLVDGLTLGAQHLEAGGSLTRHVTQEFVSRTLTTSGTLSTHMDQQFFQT

How the values were obtained:
α6β4 integrin (human) [1] = target: α6β4 integrin (human) (UniProt P16144); assay: affinity column of immobilised peptide loaded with lysates of human liver metastases, elution with peptide, ELISA for integrin subunits
α6β4 integrin (human) [2] = target: α6β4 integrin (human) (UniProt P16144); assay: affinity column fractions, phage binding assay and ELISA for integrin subunits

binding (α6β4 integrin (human) [1]): binds
binding (α6β4 integrin (human) [2]): binds
Binder: CGIYRLRSC [… synthetic peptide]
